Data: PubChem BioAssay AID1347075 (National Center for Advancing Translational Sciences (NCATS), 2019)
Among all 400,000 compounds or so, about 5,500 (1.4%) were called active. Inconclusive results, whose numbers are uncertain, are shown with a selection of clear calls. The call rests on the fitted dose curve; in most records, active means well fitted cell-killing curve with a large enough effect; inconclusive means small, poorly fitted or top-dose-only effect, or effect the other way; inactive means flat fitted curve, though single readings scatter. Potencies beside an inconclusive call are fits to weak or partial responses and may not hold up.

Test: qHTS assay for MDR1-selective chemotherapeutics: Primary screen using the parental adenocarcinoma cell KB-3-1; further: nearly all actives have a fitted effect of over 60% in size
Settings: KB-3-1 viability, CellTiter-Glo ATP luminescence, 72 h; activity change, negative = cytotoxic: at 46.1 µM (top of the series)
How it was run: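 Viability of parental KB-3-1 cells, measured by CellTiter-Glo luminescence, followed a 72 h incubation at 37 °C with pinned compounds in phenol-red-free DMEM containing 10% FBS.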
On the % scale 0 is the no-effect control and ±100 the full control effect; potency means the concentration at half of the fitted maximal effect.

Structure (SMILES)	Potency	activity change, negative = cytotoxic
COc1ccccc1S(=O)(=O)NCc1ccc(C(=O)NC2CCC(O)CC2)cc1 (centres undefined)	inactive	–
C=CCC(O)(CC=C)C(C)N (centres undefined)	inactive	–
CCOc1ccccc1NC(=S)N1CCN(c2cccc(OC)c2)CC1	inconclusive: 18.4 µM [cytotoxic, single point]	–
Cc1nn(C)c(C)c1C(C)NC(=O)c1ccc(OC2CCN(Cc3ccccn3)CC2)cc1 (centres undefined)	inconclusive: 20.6 µM [cytotoxic, single point]	–
O=C(OCc1ccccc1)N(CCCCN(CCCNCc1ccccc1)C(=O)OCc1ccccc1)CCCNCc1ccccc1	active: 16.4 µM	–
C=C1C(=O)O[C@@H]2[C@H]1[C@@H](OC(=O)/C(C)=C/C)C/C(C)=C\C(=O)/C=C(\C)[C@@H]2O	active: 2.91 µM	–
COc1cc(C(=O)Nc2nc3ccccc3[nH]2)ccc1OC(F)F	inconclusive: 29.1 µM [cytotoxic, single point]	–
CC(=O)N1CCc2cc(S(=O)(=O)NCCC(=O)N3CCc4ccccc4C3)ccc21	inconclusive: 29.1 µM [cytotoxic, single point]	–
Cc1cc(NC(=O)CSc2nnc(-c3ccccc3)c(-c3ccccc3)n2)no1	active: 7.31 µM	–
CC(C)c1cccc(O)c(=O)c1	inconclusive: 18.4 µM [cytotoxic, single point]	–
CC(C)C(NC(=O)c1ccco1)C(=O)NCc1ccc(C(=O)O)cc1 (centres undefined)	inactive	–
Cc1onc(-c2ccccc2)c1C(=O)NNC(=S)NC(=O)/C=C/c1cccs1	inconclusive: 29.1 µM [cytotoxic, single point]	–
Cc1cc(C)c2nc(N(CCCN(C)C)C(=O)c3ccc(S(=O)(=O)N4CCCCCC4)cc3)sc2c1	inconclusive: 18.4 µM [cytotoxic, single point]	–
COc1ccc(NS(=O)(=O)c2cc(NC(=O)COc3ccccc3)ccc2N2CCOCC2)cc1	inactive	–
O=C(NCc1ccco1)c1ccc(COc2ccccc2[N+](=O)[O-])o1	inactive	–
COC(=O)c1ccc(C2Nc3c(C)cccc3-c3cc(C)nn32)cc1 (centres undefined)	–	inconclusive: -31.8% [cytotoxic]
Brc1ccc(N/N=C(/N=Nc2nn[nH]n2)c2ccccc2)cc1	inactive	–
Cc1ncn(C23CC4CC(CC(C4)C2)C3)n1	inactive	–
O=C(NNC(=O)c1cc(Br)c(Br)s1)c1ccncc1	inactive	–
COC(=O)c1cccc(Cn2c(Cl)c(/C=N/NC(=O)c3ccccc3Cl)sc2=O)c1	inactive	–
NC(=O)C1CCCN(C(=O)c2ccc3nc(Cc4cccc(Cl)c4)oc3c2)C1 (centres undefined)	inactive	–
Cn1c(=O)c2ccccc2n(CC(=O)NC2CCCCC2)c1=O	inactive	–
CC1=C(C(=O)N(C)C)CC(CC(=O)NC2CCCC2)C(=O)N1Cc1ccc(F)cc1 (centres undefined)	inactive	–
O=C(Nc1c(C(=O)N2CCN(c3ccccc3F)CC2)oc2ccccc12)c1cccc(F)c1	inactive	–
COc1ccc(C2=CC(c3cc(Br)ccc3F)n3c(nc4ccccc43)N2)cc1 (centres undefined)	inconclusive: 16.4 µM [cytotoxic, single point]	–

Structure (SMILES)	Potency	activity change, negative = cytotoxic
O=C(Nc1ccc(N2CCCCC2)cc1)c1ccccn1	inconclusive: 23.1 µM [cytotoxic, single point]	–
COc1ccc(NS(=O)(=O)c2ccc(-c3coc(C)n3)cc2)cc1	inconclusive: 2.31 µM [cytotoxic, full curve]	–
CCOC(=O)c1c(NC(=O)C2=C(C)NC(=S)NC2c2ccc(C)cc2)sc(C)c1C (centres undefined)	inconclusive: 32.6 µM [cytotoxic, single point]	–
O=C(NC(=S)Nc1cccc(Cl)c1Cl)C1CC1	inconclusive: 20.6 µM [cytotoxic, single point]	–
C(=N\NC1=Nc2cccc3cccc1c23)/c1ccccn1	active: 23.1 µM	–
Cc1cc(C(=O)COC(=O)/C=C/c2ccco2)c(C)n1C	inconclusive: 29.1 µM [rising, single point]	–
Cc1ccc2[nH]c(=O)c3cc(C(=O)N4CCN(C(=O)c5ccco5)CC4)sc3c2c1	inactive	–
O=C(CC1C(=O)OCN1C(=O)OCc1ccccc1)OCC(=O)c1ccccc1 (centres undefined)	inactive	–
CCOC(=O)C1=C(C)NC(SCC(N)=O)=C(C#N)C1c1ccncc1 (centres undefined)	inconclusive: 23.1 µM [rising, partial curve, poor fit]	–
O=C(Nc1nc(-c2ccc3c(c2)OCCO3)cs1)C1CC(=O)N(c2ccc3c(c2)OCCO3)C1 (centres undefined)	inconclusive: 29.1 µM [cytotoxic, single point]	–
Cc1nc(-c2cccc(S(=O)(=O)N3CC(C)CC(C)C3)c2)cs1 (centres undefined)	inconclusive: 25.9 µM [cytotoxic, single point]	–
COc1ccc(NS(=O)(=O)c2ccc3nc(COc4cccc5ccccc45)[nH]c3c2)cc1	inconclusive: 18.4 µM [cytotoxic, single point]	–
CN1CCN(c2ccc(Nc3ccnc4cc(Cl)ccc34)cc2)CC1	inconclusive: 29.1 µM [cytotoxic, single point]	–
CCOC(=O)c1sc(NC(=O)CN2C(=O)NC3(CC(C)CC(C)(C)C3)C2=O)cc1C (centres undefined)	inconclusive: 32.6 µM [cytotoxic, single point]	–
Cc1cccc(CS(=O)(=O)c2ncc(Cl)c(C(=O)Nc3nnc(C(C)C)s3)n2)c1	active: 16.4 µM	–
CCc1cc(SC#N)cc(CC)c1NC(=O)CCl	active: 20.6 µM	–
CCCCOc1ccc(OCCNC(=O)c2ccco2)cc1	inconclusive: 29.1 µM [cytotoxic, partial curve, poor fit]	–
C/C(=N/Nc1ccc(Cl)cc1)c1cnnc(-c2ccccc2)n1	inactive	–
O=C(CN1CCc2ccccc2C1)Nc1ccccc1N1CCCCCC1	inconclusive: 25.9 µM [cytotoxic, single point]	–
Cc1ccc(Nc2nnc(-c3ccc(C)c(S(=O)(=O)N4CCOCC4)c3)c3ccccc23)cc1	inactive	–
COc1ccc(C(C(=O)NCc2ccccc2)n2c(-c3ccccn3)nc3ccccc32)cc1 (centres undefined)	inconclusive: 18.4 µM [cytotoxic, single point]	–
OCCCN1CCN(CCCOc2ccccc2-c2ccccc2)CC1	inactive	–
COc1ccc(NS(=O)(=O)c2ccc(N3CCCC3=O)cc2)cn1	inconclusive: 16.4 µM [cytotoxic, single point]	–
CCCCCCCCN1[C@@H](CC(C)=O)c2ccc(/C=C/C(C)=O)cc2S1(=O)=O	inconclusive: 18.4 µM [cytotoxic, single point]	–
COc1cccc2c1C(=O)c1c(O)c3c(c(O)c1C2=O)CC(O)(C(C)=NNC(=O)c1ccc(Cl)c(Cl)c1)CC3OC1CC(N)C(O)C(C)O1 (centres undefined)	active: 2.06 µM	–

Another view of some results above:

| Structure (SMILES) | Potency | activity change, negative = cytotoxic |
| --- | --- | --- |
| O=C(Nc1ccc(N2CCCCC2)cc1)c1ccccn1 | inconclusive: 23.1 µM [cytotoxic, single point] | – |
| COc1ccc(NS(=O)(=O)c2ccc(-c3coc(C)n3)cc2)cc1 | inconclusive: 2.31 µM [cytotoxic, full curve] | – |
| CCOC(=O)c1c(NC(=O)C2=C(C)NC(=S)NC2c2ccc(C)cc2)sc(C)c1C (centres undefined) | inconclusive: 32.6 µM [cytotoxic, single point] | – |

Additional results

Structure (SMILES)	Potency	activity change, negative = cytotoxic
Cc1ccc(C)c(S(=O)(=O)N2CCCCC2CCNC(=O)C(=O)NCc2ccccc2)c1 (centres undefined)	active: 25.9 µM	–
CC1Nc2ncnc(N3CCN(c4ccccc4)CC3)c2N(Cc2ccccc2)C1=O (centres undefined)	inactive	–
COc1ccccc1NS(=O)(=O)c1ccc(-c2cc(C)no2)s1	active: 7.31 µM	–
CN1CCN(C(=O)CSc2nnc(COc3ccccc3)o2)CC1	inactive	–
COc1ccccc1/C=C/C=N/Nc1cccc(C(=O)O)c1	inactive	–
CC1CN(C2=CC(=O)CCC2)CC(C)O1 (centres undefined)	inconclusive: 14.6 µM [rising, partial curve, poor fit]	–
O=C(Nc1ccc(F)cc1)C(c1ccnc2ccccc12)N1CCN(c2cccc(C(F)(F)F)n2)CC1 (centres undefined)	inconclusive: 18.4 µM [cytotoxic, single point]	–
Cc1ccc2c(c1)C(=O)N1[C@H]3c4cc(Br)ccc4OC[C@@H]3[C@H](c3ccccc3)[C@]1(C)C(=O)N2	inactive	–
CC(=O)c1ccc(S(=O)(=O)N2CCN(c3nc(-c4ccccc4)nc4ccccc34)CC2)cc1	inconclusive: 25.9 µM [rising, single point]	–
COc1ccc(-n2nnnc2SCC#CCO)cc1	inconclusive: 29.1 µM [cytotoxic, single point]	–
CCC(C)NC(=O)CNC(=O)c1nn(-c2ccc(OC)cc2OC)c(=O)c2ccccc12 (centres undefined)	inactive	–
O=C(N/N=C/c1cc([N+](=O)[O-])ccc1O)c1c[nH]c2ccccc12	inconclusive: 29.1 µM [cytotoxic, single point]	–
CCOc1c2ccc(C(=O)NCc3ccco3)cc2nn1CC	inconclusive: 2.91 µM [rising, full curve, poor fit]	–
COCCNC(=O)C1(C)CCN(Cc2csc(-c3ccc(Cl)cc3)n2)C1 (centres undefined)	inactive	–
C[C@@H]1CN([C@H](C)CO)S(=O)(=O)c2ccc(Br)cc2O[C@H]1CN(C)C(=O)C1CCCCC1	inconclusive: 10.3 µM [cytotoxic, partial curve, poor fit]	–
CCCOc1ccc(F)cc1-c1cc(C(=O)NCc2ccc(F)cc2)[nH]n1	inconclusive: 23.1 µM [cytotoxic, single point]	–
O=C(Oc1c(Cl)cc(Cl)c2ccccc12)N1CCCC1	inconclusive: 29.1 µM [rising, single point]	–
Cc1cc(=O)n(Cc2ccc(Cl)cc2)c2c1c(C)nn2-c1ccccc1	inactive	–
CCOC(=O)C1=CN(Cc2cccc(F)c2)S(=O)(=O)N(CC)C1c1ccc(Br)cc1F (centres undefined)	inconclusive: 29.1 µM [cytotoxic, single point]	–
COc1ccc(Nc2oc(COc3ccccc3F)nc2C#N)cc1	inactive	–
NNC(=O)c1[nH]c2ccccc2c1-c1ccccc1	inconclusive: 20.6 µM [cytotoxic, single point]	–
O=C(NCc1noc2ccccc12)N1CCN(c2ccccc2)CC1	inactive	–
CC1(/[N+]([O-])=C/c2ccc(F)cc2)CCCCC1=O (centres undefined)	inactive	–
CC(C)c1ccccc1NC(=O)c1cccc(NC(=O)c2ccccc2)c1	inconclusive: 20.6 µM [cytotoxic, single point]	–
